{"source": "paper PMC5996148", "test_in_all_cases": "protein microarray (ProtoArray v5.0), streptavidin-Alexa Fluor 647", "details_in_all_cases": "3'-biotin; 20 mM Tris (pH 7.5), 5 mM MgCl2, 100 mM KCl, 0.1% Tween-20, A/T-rich and random oligonucleotide blockers; temperature not stated; high values mean tight binding", "key": {"MGC33407 (human)": {"tested_on": "MGC33407 (human)"}, "MGC35023 (human)": {"tested_on": "MGC35023 (human)"}, "MGC42105 (human)": {"tested_on": "MGC42105 (human)"}, "MGC50273 (human)": {"tested_on": "MGC50273 (human)"}, "MGC59937 (human)": {"tested_on": "MGC59937 (human)"}, "MGRN1 (human)": {"tested_on": "MGRN1 (human)"}, "MGST2 (human)": {"tested_on": "MGST2 (human)"}, "MIER1 (human)": {"tested_on": "MIER1 (human)"}, "MIF (human)": {"tested_on": "MIF (human)"}, "MIR16 (human)": {"tested_on": "MIR16 (human)"}, "MITF (human)": {"tested_on": "MITF (human)"}, "MKKS (human)": {"tested_on": "MKKS (human)"}, "MKNK2 (human)": {"tested_on": "MKNK2 (human)"}, "MKS1 (human)": {"tested_on": "MKS1 (human)"}, "MLC1 (human)": {"tested_on": "MLC1 (human)"}, "MLX (human)": {"tested_on": "MLX (human)"}, "MMP12 (human)": {"tested_on": "MMP12 (human)"}, "MMP19 (human)": {"tested_on": "MMP19 (human)"}, "MNAT1 (human)": {"tested_on": "MNAT1 (human)"}, "MOBKL1A": {"target": "T1, MOBKL1A (UniProt Q7L9L4)", "T1 sequence": "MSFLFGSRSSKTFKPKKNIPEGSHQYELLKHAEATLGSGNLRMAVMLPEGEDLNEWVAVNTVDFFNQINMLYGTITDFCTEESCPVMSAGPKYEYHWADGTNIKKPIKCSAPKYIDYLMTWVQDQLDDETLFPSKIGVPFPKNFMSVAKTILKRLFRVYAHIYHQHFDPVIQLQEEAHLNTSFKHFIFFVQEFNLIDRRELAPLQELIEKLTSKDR"}}, "note": "“And” between values parts separate entries of the source, which are not always exact repeats. Identical values can stand only once. The list shows a part of the results. For some assays here: The exact form of the protein is not confirmed."}
{"sequence": "GGGAGGCTGAGGCAGG [G4-1 biotinylated (PQS2)]", "values": [{"measurement": "binding signal", "setting": "MGC33407 (human)", "result": -0.28, "unit": "z-score"}, {"measurement": "binding signal", "setting": "MGC35023 (human)", "result": -0.308, "unit": "z-score"}, {"measurement": "binding signal", "setting": "MGC42105 (human)", "result": -0.291, "unit": "z-score"}, {"measurement": "binding signal", "setting": "MGC50273 (human)", "result": -0.289, "unit": "z-score"}, {"measurement": "binding signal", "setting": "MGC59937 (human)", "result": -0.315, "unit": "z-score"}, {"measurement": "binding signal", "setting": "MGRN1 (human)", "result": -0.351, "unit": "z-score"}, {"measurement": "binding signal", "setting": "MGST2 (human)", "result": -0.335, "unit": "z-score"}, {"measurement": "binding signal", "setting": "MIER1 (human)", "result": -0.339, "unit": "z-score"}, {"measurement": "binding signal", "setting": "MIF (human)", "result": -0.321, "unit": "z-score"}, {"measurement": "binding signal", "setting": "MIR16 (human)", "result": -0.343, "unit": "z-score"}, {"measurement": "binding signal", "setting": "MITF (human)", "result": -0.33, "unit": "z-score"}, {"measurement": "binding signal", "setting": "MKKS (human)", "result": -0.287, "unit": "z-score"}, {"measurement": "binding signal", "setting": "MKNK2 (human)", "result": -0.324, "unit": "z-score"}, {"measurement": "binding signal", "setting": "MKS1 (human)", "result": -0.294, "unit": "z-score"}, {"measurement": "binding signal", "setting": "MLC1 (human)", "result": -0.336, "unit": "z-score"}, {"measurement": "binding signal", "setting": "MLX (human)", "result": "-0.368 z-score and -0.348 z-score"}, {"measurement": "binding signal", "setting": "MMP12 (human)", "result": -0.351, "unit": "z-score"}, {"measurement": "binding signal", "setting": "MMP19 (human)", "result": -0.285, "unit": "z-score"}, {"measurement": "binding signal", "setting": "MNAT1 (human)", "result": -0.264, "unit": "z-score"}, {"measurement": "binding signal", "setting": "MOBKL1A", "result": -0.334, "unit": "z-score"}]}
